Results are given in words; binding and its absence hold for the method and conditions named. For some of these results: In cells and extracts the contact can be indirect. Some results given as binding are weak or reduced against the parent protein; the word gives no strength.
Experiments:
[1] = target: hemagglutinin (HA)-tagged CHMP5 (mouse) (UniProt Q9D7S9); test: co-IP; anti-HA immunoprecipitation (isotype IgG as control) from fractionated/nuclear lysates of CUTLL1 cells transduced with HA-tagged CHMP5; Protein G Dynabeads, antibody overnight at 4 °C; western blot
recombinant p300-FLAG = recombinant p300-FLAG (UniProt Q09472); test: co-IP; cell-free: recombinant proteins, 0.5 μg each, mixed 1:1 in TBS (50 mM Tris-HCl, 150 mM NaCl) with protease inhibitors, overnight at 4 °C; anti-FLAG antibody 4 h, Protein G Dynabeads 2 h; washed with TBS + 0.2% NP-40; both purified

The chains behind the UniProt entries cited, without tags or fusion partners. Residues count along the entry.
UniProt Q9D7S9: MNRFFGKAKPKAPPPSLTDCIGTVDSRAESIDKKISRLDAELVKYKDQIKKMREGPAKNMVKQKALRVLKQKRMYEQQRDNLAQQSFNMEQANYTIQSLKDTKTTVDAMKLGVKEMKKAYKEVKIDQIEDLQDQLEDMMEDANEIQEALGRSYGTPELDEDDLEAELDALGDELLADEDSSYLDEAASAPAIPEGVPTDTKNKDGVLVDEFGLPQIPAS
UniProt Q09472: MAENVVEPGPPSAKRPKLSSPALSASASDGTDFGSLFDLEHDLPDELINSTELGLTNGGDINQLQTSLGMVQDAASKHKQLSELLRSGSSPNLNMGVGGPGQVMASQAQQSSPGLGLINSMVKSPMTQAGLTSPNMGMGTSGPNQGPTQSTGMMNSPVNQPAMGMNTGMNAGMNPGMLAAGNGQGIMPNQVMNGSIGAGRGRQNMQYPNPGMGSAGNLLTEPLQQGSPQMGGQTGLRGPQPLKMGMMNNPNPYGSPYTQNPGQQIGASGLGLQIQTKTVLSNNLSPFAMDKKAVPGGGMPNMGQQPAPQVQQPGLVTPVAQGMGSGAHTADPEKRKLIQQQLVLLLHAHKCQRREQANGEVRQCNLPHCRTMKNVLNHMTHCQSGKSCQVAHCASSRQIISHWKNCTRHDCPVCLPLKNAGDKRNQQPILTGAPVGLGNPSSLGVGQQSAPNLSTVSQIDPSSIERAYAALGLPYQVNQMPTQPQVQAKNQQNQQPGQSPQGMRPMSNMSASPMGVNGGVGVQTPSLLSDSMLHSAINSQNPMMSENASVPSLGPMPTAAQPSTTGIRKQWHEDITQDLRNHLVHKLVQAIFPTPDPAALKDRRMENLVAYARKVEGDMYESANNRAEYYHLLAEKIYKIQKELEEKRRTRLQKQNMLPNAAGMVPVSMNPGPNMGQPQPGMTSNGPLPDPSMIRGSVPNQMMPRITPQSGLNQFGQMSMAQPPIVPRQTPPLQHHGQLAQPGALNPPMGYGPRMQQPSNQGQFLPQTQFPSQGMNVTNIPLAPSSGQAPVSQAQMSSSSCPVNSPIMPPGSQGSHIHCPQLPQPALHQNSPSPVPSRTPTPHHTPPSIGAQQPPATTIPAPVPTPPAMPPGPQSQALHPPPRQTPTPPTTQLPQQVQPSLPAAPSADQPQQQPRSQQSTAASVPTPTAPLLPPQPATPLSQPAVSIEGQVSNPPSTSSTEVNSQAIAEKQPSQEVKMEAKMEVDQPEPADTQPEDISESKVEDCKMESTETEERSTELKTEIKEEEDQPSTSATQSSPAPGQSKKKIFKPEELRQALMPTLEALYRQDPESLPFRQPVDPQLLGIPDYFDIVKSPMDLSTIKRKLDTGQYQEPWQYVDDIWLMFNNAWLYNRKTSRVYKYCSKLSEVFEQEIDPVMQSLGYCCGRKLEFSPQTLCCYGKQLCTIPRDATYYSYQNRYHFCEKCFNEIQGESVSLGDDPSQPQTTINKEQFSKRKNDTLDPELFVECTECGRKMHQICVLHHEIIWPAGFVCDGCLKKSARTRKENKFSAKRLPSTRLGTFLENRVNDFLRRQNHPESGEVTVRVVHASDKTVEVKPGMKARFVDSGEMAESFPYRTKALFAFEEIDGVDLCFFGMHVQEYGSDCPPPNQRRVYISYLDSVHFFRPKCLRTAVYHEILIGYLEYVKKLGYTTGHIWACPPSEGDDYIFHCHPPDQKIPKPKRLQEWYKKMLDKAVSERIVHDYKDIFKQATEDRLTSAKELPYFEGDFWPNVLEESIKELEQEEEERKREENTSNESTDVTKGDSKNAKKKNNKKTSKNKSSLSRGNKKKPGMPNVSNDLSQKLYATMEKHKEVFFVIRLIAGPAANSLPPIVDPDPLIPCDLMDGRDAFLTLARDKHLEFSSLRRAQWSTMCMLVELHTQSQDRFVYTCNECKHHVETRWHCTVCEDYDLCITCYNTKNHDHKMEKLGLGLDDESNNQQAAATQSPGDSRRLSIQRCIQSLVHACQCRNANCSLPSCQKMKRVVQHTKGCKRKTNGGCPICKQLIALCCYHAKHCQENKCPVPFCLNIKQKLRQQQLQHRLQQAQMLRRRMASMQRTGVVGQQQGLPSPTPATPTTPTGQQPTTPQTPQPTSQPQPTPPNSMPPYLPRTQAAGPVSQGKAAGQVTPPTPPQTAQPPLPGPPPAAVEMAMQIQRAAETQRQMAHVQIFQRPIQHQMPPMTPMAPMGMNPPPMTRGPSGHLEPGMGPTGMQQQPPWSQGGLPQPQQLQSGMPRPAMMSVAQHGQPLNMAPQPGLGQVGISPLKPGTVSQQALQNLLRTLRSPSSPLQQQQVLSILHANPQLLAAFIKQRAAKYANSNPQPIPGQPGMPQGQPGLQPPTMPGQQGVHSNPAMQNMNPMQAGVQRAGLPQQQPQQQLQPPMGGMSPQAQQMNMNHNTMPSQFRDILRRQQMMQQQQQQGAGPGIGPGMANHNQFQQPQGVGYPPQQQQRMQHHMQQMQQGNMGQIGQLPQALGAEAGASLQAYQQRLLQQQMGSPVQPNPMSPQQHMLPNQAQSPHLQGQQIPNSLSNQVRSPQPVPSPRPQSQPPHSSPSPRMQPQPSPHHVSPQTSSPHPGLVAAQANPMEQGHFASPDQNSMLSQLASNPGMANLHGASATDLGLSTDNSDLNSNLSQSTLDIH
UniProt P01106: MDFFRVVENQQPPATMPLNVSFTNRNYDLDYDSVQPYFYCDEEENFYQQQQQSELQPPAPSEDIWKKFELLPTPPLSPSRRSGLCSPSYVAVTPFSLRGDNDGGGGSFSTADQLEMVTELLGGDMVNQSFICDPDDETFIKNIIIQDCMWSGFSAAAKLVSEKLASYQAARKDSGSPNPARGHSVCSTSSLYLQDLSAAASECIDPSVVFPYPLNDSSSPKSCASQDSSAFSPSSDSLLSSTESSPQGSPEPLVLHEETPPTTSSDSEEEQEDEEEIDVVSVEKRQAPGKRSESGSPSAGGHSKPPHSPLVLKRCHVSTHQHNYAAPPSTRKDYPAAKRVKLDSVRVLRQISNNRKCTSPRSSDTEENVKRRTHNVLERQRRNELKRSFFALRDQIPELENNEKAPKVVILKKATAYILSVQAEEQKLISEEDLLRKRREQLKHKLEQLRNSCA
UniProt P46531, residues 1754-2555: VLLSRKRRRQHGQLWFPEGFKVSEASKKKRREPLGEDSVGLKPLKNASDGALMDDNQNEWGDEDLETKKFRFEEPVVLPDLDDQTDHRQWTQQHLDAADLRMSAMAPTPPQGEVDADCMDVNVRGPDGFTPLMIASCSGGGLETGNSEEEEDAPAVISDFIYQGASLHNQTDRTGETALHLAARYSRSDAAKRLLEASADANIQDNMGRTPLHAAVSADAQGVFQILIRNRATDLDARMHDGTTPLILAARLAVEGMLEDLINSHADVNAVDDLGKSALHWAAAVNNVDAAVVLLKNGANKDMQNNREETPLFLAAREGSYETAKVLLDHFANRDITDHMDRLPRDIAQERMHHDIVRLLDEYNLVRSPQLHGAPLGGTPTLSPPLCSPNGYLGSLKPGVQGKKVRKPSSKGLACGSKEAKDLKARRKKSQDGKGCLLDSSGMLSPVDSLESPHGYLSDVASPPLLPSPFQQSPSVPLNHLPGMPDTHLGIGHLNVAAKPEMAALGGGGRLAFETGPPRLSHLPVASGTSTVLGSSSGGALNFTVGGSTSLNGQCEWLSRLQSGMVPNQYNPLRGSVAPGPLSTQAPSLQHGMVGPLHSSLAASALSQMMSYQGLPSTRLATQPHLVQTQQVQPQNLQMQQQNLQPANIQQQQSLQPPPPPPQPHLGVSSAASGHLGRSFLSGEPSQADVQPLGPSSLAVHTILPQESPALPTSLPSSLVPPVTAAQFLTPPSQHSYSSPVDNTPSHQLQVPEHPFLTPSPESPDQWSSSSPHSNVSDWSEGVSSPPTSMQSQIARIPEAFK
UniProt Q9NZZ3: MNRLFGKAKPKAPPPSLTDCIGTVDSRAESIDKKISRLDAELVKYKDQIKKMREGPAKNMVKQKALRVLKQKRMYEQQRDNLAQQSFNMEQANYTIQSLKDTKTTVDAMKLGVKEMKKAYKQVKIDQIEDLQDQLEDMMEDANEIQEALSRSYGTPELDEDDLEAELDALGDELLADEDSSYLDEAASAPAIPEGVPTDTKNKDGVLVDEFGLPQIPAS

Row | Substance | binding [1] | binding (recombinant p300-FLAG)
1 | MYC (from UniProt P01106 1-454) | no binding | 
2 | intracellular NOTCH1 domain (ICN1) (from UniProt P46531 1754-2555) (domain or fragment) | no binding | 
3 | p300 (endogenous, CUTLL1) (from UniProt Q09472 1-2414) (enzyme) | binds | 
4 | recombinant CHMP5-His (from UniProt Q9NZZ3 1-219) |  | binds
